No constants are given. Whether binding was seen depends on the method and setting. In cells and extracts the contact can be indirect. Here binding means that the protein was enriched with, or labelled near, the bait; the list need not be complete.
Biological target: T1, YTHDF2 (mouse, endogenous in CD8 T cells) (mouse (endogenous in mouse CD8 T cells)) (UniProt Q91YT7)
T1 sequence: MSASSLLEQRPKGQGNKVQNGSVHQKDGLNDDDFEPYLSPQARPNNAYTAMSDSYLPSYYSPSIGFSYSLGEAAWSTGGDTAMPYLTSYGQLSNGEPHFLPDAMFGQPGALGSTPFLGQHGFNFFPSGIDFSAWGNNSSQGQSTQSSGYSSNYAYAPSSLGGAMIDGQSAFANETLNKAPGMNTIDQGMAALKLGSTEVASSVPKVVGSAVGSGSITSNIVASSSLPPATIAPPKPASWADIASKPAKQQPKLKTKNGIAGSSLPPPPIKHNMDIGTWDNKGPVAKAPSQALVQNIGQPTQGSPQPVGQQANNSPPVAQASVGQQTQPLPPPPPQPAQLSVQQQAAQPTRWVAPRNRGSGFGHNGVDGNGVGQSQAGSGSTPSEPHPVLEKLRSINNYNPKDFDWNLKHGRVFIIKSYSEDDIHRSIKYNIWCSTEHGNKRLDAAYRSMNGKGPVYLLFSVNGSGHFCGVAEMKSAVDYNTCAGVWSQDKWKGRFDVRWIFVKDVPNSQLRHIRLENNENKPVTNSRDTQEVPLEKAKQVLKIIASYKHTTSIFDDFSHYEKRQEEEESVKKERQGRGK
Test: affinity purification with mass spectrometry

Chains of the proteins cited; added tags and fusions are not shown.
UniProt O08900: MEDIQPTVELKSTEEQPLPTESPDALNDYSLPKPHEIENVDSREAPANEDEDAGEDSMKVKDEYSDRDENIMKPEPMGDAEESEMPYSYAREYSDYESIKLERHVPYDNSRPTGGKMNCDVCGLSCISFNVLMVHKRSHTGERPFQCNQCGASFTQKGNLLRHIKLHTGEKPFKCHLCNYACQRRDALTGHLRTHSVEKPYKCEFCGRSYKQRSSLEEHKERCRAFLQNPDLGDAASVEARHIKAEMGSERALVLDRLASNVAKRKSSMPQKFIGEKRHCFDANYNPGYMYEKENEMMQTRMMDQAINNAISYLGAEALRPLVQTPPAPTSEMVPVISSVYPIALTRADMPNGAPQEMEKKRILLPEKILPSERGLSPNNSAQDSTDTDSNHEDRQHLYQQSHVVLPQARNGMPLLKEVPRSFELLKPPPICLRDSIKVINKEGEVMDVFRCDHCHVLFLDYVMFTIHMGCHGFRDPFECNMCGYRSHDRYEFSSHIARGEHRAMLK
UniProt Q03267: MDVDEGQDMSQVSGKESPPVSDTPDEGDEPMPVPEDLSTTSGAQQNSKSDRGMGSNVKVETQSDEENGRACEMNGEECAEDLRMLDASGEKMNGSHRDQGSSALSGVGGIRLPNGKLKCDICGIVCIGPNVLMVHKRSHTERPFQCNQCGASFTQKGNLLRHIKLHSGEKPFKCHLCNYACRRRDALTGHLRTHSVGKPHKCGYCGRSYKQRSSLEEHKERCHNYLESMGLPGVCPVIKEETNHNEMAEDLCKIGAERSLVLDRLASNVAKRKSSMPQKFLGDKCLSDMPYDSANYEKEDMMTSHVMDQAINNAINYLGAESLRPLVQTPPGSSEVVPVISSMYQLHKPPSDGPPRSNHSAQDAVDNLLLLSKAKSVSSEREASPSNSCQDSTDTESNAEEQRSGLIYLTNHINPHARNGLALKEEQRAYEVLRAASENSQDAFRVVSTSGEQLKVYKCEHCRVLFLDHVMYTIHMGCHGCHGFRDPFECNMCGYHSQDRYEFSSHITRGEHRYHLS

Substance | binding
Aiolos (IKZF3) (mouse, endogenous in CD8 T cells) (from UniProt O08900 1-507) | binds
Ikaros (IKZF1) (mouse, endogenous in CD8 T cells) (from UniProt Q03267 1-517) | binds

From article doi:10.1101/2024.07.11.603088
